Data on 1 substance can be found in US20110319318A1, “COVALENT MILK PROTEIN/ISOTHIOCYANATE COMPLEXES” (NESTEC S.A., priority 2009, published 2011).

The nature of this data set: Pungency sensory scoring by eight subjects. Format: in vivo. The note with it: scale 0 to 10; 0.5 mM BLG + 0.5 or 1 mM AITC versus AITC alone; pH 7.0, heated 15 min 85° C.

With “BLG-AITC covalent complexes: covalent complexes of β-lactoglobulin and allyl isothiocyanate, various AITC to BLG molar ratios”, the “pungency by in mouth tasting (nose-clip)” value is recorded as “reduced significantly the pungency” and the pungency by sniffing result is given as “reduced significantly the pungency”.
